Experimental data taken from patent publication US20230356105A1, “TETRAAZADODECANE BASED CHELATING AGENTS FOR SEPARATION OF RARE EARTH ELEMENTS AND METHOD THEREFOR” (Ustav Organicke Chemie a Biochemie AV CR V.V.I., priority 2020, published 2023).

Test: Use of additives to improve separation of Nd/Dy mixture by precipitation with L5 (Example 18)
Assay type: physicochemical
Conditions: 11 mM L5
Description: Stock solutions were pipetted into plastic 1×1 cm cuvettes to prepare reaction mixtures with concentrations as follows: • 1. […] 5 mM NdCl3 • 3. 5 mM DyCl3 • 4. 500 mM MOPS pH=7 • 5. the additive of interest, in a variable concentration; if possible, stock solutions were prepared from Na^+ salt forms of the compound; if not, the stock solutions were titrated by NaOH/HCl to pH=7 prior to addition (see Table 12 for additives and concentrations)
These aqueous reaction mixtures, each prepared to a total volume of 2.0 mL with the addition of water as necessary, were mixed by the use of a PTFE-coated stir bar on a magnetic stirrer. The cuvettes were sealed with transparent tape to prevent evaporation overnight. The reaction mixtures were stirred for 18 hours, at which point 500 μL aliquots of each reaction mixture were transferred into plastic 2 mL Eppendorf tubes and centrifuged. The supernatants were carefully pipetted out and transferred to a new set of tubes. The precipitate was dissolved by addition of 500 μL 1M HCl. The absolute concentration of Nd and Dy in each supernatant and precipitate was determined by ICP-OES.

SMILES | Separation factor (Dy/Nd) (additive 20 mM) | Separation factor (Dy/Nd) (additive 50 mM) | Separation factor (Dy/Nd) (additive 100 mM) | Separation factor (Dy/Nd) (additive 200 mM) | Separation factor (Dy/Nd) (additive 500 mM) | Separation factor (Dy/Nd) (additive 5 mM) | Separation factor (Dy/Nd) (additive 10 mM) | other results
O=C(O)c1ccccc1 [benzoic acid] | 10.8 | 72.1 | 38.9 | 4.6 |  |  |  | Separation factor (Dy/Nd) (additive 150 mM): 24.6
Cl [chloride] |  |  | 1.2 | 1.8 | 2.2 |  |  | Separation factor (Dy/Nd) (additive 1000 mM): 2.2
O=C(O)CC(O)(CC(=O)O)C(=O)O [citrate] | 18.1 |  |  |  |  | 8.6 | 17.2 | Separation factor (Dy/Nd) (additive 1 mM): 2.9
O=C(O)c1cccc(C(=O)O)n1 [dipicolinic acid] | 14.3 |  |  |  |  |  |  | 
F [fluoride] |  |  |  |  |  | 11.6 | 20.4 | Separation factor (Dy/Nd) (additive 15 mM): 13.9
O=CO [formate] |  | 8.5 | 3.2 |  | 27.2 |  |  | Separation factor (Dy/Nd) (additive 250 mM): 24.8
